From paper PMC8721997
These are yes or no findings as the source states them, for the method shown. In cells and extracts the contact can be indirect. Some entries that bind do so weakly or less than the wild type. Where a sequence is shown, tags or fusion partners need not be part of it.

Protein sequences, listed by entry. Tags and fused reporters are not part of them.
UniProt O95180: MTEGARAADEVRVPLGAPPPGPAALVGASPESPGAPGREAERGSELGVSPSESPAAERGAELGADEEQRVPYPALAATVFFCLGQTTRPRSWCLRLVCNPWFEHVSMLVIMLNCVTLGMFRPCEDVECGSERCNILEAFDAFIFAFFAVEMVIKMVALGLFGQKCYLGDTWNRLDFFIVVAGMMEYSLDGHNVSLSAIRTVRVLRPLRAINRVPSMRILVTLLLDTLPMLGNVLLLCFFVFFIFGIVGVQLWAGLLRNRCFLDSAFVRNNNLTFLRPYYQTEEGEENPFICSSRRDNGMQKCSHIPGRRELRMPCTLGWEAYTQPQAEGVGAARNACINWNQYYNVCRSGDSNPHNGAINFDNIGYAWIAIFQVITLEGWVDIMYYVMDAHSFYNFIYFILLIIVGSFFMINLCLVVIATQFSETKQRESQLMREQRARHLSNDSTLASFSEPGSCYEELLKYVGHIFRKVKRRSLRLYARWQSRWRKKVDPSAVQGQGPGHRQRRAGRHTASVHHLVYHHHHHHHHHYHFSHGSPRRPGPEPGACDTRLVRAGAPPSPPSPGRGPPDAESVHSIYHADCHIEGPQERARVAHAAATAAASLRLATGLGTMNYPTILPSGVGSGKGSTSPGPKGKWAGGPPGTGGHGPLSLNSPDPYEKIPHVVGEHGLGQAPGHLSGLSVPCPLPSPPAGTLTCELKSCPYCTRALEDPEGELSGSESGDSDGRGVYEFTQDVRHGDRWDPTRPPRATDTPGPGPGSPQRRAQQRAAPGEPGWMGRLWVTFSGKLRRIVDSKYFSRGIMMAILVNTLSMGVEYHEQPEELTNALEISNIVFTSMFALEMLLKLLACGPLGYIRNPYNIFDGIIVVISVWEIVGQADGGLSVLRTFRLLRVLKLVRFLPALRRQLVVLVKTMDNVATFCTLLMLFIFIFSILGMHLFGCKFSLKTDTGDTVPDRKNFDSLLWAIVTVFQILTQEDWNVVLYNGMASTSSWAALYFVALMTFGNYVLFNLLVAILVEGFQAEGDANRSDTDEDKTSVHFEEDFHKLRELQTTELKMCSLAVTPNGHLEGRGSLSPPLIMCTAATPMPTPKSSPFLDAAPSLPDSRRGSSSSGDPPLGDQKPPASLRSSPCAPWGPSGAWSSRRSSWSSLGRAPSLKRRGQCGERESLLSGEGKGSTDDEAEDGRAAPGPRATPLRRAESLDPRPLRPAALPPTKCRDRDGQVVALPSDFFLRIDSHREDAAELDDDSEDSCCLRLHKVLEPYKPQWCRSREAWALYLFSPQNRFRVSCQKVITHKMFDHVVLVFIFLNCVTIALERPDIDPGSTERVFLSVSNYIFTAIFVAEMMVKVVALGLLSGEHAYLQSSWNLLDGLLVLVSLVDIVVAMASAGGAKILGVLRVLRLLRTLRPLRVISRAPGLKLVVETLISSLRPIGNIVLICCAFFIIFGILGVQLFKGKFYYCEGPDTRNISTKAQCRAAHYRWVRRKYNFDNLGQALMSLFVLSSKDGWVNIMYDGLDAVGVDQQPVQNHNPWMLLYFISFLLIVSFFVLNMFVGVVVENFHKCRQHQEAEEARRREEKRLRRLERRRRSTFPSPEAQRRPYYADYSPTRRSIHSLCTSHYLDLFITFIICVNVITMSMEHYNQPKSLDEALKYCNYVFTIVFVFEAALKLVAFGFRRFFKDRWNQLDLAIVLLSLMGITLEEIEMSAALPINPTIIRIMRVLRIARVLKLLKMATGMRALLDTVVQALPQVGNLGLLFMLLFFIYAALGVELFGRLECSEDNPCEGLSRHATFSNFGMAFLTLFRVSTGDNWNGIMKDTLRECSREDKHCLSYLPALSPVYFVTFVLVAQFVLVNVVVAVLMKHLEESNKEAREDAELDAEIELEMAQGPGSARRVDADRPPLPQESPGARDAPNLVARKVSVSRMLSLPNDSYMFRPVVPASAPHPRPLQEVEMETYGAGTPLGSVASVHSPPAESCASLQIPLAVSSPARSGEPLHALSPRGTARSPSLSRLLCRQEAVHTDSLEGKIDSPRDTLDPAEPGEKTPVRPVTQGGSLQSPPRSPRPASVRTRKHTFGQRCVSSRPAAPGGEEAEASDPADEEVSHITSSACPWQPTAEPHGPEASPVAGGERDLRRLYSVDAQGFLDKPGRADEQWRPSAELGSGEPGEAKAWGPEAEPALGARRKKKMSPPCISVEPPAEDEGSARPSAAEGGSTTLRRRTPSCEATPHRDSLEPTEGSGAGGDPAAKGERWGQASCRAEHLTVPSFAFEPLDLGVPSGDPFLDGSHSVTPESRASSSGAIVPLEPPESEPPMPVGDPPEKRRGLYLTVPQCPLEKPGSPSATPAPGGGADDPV

Target: HA-tagged Cav3.2 channel (Cav3.2-HA) (UniProt O95180)
Assay: co-IP; anti-HA antibody precipitation from total lysates of tsA-201 cells co-transfected with Cav3.2-HA and SCAMP2-Myc; blot with anti-Myc; performed four times from independent transfections

binding: binds
B1: Myc-tagged secretory carrier-associated membrane protein 2 (SCAMP2-Myc) (protein, UniProt O15127 1-329)
chain: MSAFDTNPFADPVDVNPFQDPSVTQLTNAPQGGLAEFNPFSETNAATTVPVTQLPGSSQPAVLQPSVEPTQPTPQAVVSAAQAGLLRQQEELDRKAAELERKERELQNTVANLHVRQNNWPPLPSWCPVKPCFYQDFSTEIPADYQRICKMLYYLWMLHSVTLFLNLLACLAWFSGNSSKGVDFGLSILWFLIFTPCAFLCWYRPIYKAFRSDNSFSFFVFFFVFFCQIGIYIIQLVGIPGLGDSGWIAALSTLDNHSLAISVIMMVVAGFFTLCAVLSVFLLQRVHSLYRRTGASFQQAQEEFSQGIFSSRTFHRAASSAAQGAFQGN
